Measured values as given in PubChem BioAssay AID1487 (National Center for Advancing Translational Sciences (NCATS), 2009).
Some of the results follow. Further columns of the screen follow, without active or inactive calls. Compounds called inactive in the main read-out are mostly missing here. Words in brackets tell the shape of the fitted curve; partial curves, single points and poor fits give uncertain potencies.

Test: qHTS Assay for Modulators of Lamin A Splicing
Details: HeLa LMNA splicing GFP/RFP minigene ratio, 48 h
Procedure, shortened: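 S3 HeLa stable clones carrying a lamin A-EGFP splicing minigene plus DsRed2 were seeded at 600 cells/well in Opti-MEM with 2% FBS, pin-dosed and incubated 48 h at 37°C. Acumen cytometry (488 nm) gave the GFP/RFP total-intensity ratio.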

[1] = measured here: RFP viability control channel
[2] = measured here: GFP splicing reporter channel

**Q.** For O=C(CNC(=O)c1cccc(Br)c1)N/N=C/c1cc(Br)cc(Br)c1O, which AC50 [1] is on record?
**A.** 17.8 µM [rising, single point]

**Q.** Which AC50 [1] does the source give for Cc1cc(N2CCCC2=O)cc(C)c1S(=O)(=O)NCCOc1ccc(C(C)(C)C)cc1 here?
**A.** 14.1 µM [rising, single point]

**Q.** Which results are given for O=C(CNCC1CCCO1)N1CCCCCC1 (configuration not stated)?
**A.** AC50 [2]: 11.2 µM [falling, partial curve, poor fit]; AC50 [1]: 0.126 µM [falling, full curve, poor fit]

**Q.** Which AC50 [2] does the source give for CCc1ccc(NS(=O)(=O)c2ccc3[nH]c4c(c3c2)CCCCCC4)cc1 here?
**A.** 12.6 µM [falling, partial curve]

**Q.** And the AC50 [1]?
**A.** 11.2 µM [falling, partial curve]

**Q.** Which AC50 [2] does the source give for O=C(CCCSc1nc2ccccc2[nH]1)NCc1ccc(Cl)cc1 here?
**A.** 12.6 µM [rising, single point]

**Q.** And the AC50 [1]?
**A.** 20 µM [rising, single point]

**Q.** For COc1ccc(CN2CCN(C(=O)c3cccs3)CC2)cc1, which AC50 [1] is on record?
**A.** 35.5 µM [rising, single point]

**Q.** Which results are given for C[C@@](N)(Cc1ccc(O)c(O)c1)C(=O)O?
**A.** AC50 [2]: 0.251 µM [falling, full curve]; AC50 [1]: 0.316 µM [falling, full curve, poor fit]

**Q.** Which AC50 [1] does the source give for Nc1c(-c2ccccc2)c(CSc2nc3ccccc3[nH]2)nn1-c1cccc(Cl)c1 here?
**A.** 3.55 µM [rising, full curve]

**Q.** Which AC50 [1] does the source give for O=C(NC(Nc1nc2ccc([N+](=O)[O-])cc2s1)(C(F)(F)F)C(F)(F)F)c1ccccc1 here?
**A.** 0.398 µM [rising, full curve]

**Q.** With O=C(CSc1nc(Nc2ccc(F)c(F)c2)c2ccccc2n1)c1ccc(Cl)cc1 as the compound, how does the AC50 [1] read?
**A.** 11.2 µM [falling, partial curve, poor fit]

**Q.** Which AC50 [1] does the source give for O/N=C(\c1ccc(Cl)cc1)c1cc2ccccc2o1 here?
**A.** 35.5 µM [rising, single point]

**Q.** Which AC50 [2] does the source give for N#CC1=C(N)N(c2ccccc2)C(c2ccccc2)C1(C#N)C#N (configuration not stated) here?
**A.** 2.82 µM [rising, full curve]

**Q.** And the AC50 [1]?
**A.** 8.91 µM [rising, partial curve]

**Q.** For CCOc1ncccc1C(=O)OCC(=O)c1ccc(F)cc1, which AC50 [1] is on record?
**A.** 0.224 µM [rising, partial curve, poor fit]

**Q.** What does the source list for O=C1c2ccccc2NC2CCCCC12 (configuration not stated)?
**A.** AC50 [2]: 35.5 µM [rising, single point]; AC50 [1]: 11.2 µM [rising, single point]

**Q.** With CC(C)NC(=O)c1onc(CSc2cccc(Cl)c2)c1C(=O)O as the compound, how does the AC50 [2] read?
**A.** 10 µM [falling, single point]

**Q.** Which AC50 [2] does the source give for COc1ccc(-c2nc3cc(NC(=O)COc4ccc(F)cc4)ccc3o2)cc1 here?
**A.** 1.41 µM [rising, full curve, poor fit]
